The target of assay [1] is endogenous IFT20 of Jurkat cells (human (endogenous in Jurkat)) (UniProt Q8IY31). The assay can be described thus: co-IP; endogenous proteins; Jurkat cells unstimulated or stimulated with 1 ug/mL anti-CD3 and 1 ug/mL anti-CD28 for 24 h, lysed with 1% Triton X-100; IFT20 precipitated from 500 ug lysate on Protein A magnetic beads; immunoblot.
Assay [2] has as its target strep-tag II tagged IFT20, overexpressed in HEK293T cells (UniProt Q8IY31). Briefly: co-IP; HEK293T cells transfected for 48 h, lysed with 1% Triton X-100; strep-tag II precipitated from 1000 ug lysate on Protein A magnetic beads; immunoblot for IFT20 and TSG101.

The chains behind the UniProt entries cited, without tags or fusion partners.
UniProt Q8IY31: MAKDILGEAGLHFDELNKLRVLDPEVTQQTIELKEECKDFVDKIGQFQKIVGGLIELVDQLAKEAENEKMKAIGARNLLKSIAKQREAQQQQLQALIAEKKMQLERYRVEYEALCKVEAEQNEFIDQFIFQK
UniProt Q99816: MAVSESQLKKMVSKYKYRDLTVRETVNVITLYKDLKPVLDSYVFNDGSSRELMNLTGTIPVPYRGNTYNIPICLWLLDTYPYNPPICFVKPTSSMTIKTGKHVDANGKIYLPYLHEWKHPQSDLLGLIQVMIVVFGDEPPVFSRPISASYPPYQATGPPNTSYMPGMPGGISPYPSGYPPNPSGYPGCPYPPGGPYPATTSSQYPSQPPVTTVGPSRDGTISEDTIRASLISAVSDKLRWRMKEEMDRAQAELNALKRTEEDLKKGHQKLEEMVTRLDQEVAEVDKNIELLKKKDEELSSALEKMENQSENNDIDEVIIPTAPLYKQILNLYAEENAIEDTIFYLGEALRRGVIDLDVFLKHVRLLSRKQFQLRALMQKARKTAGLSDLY

Results are given in words; binding and its absence hold for the method and conditions named. In cells and extracts the contact can be indirect. Some entries that bind do so weakly or less than the wild type.

Regarding “endogenous TSG101 of Jurkat cells (from UniProt Q99816 1-390)”, in assay [1], the binding entry is listed as “binds”.

B1: TSG101, overexpressed in HEK293T cells (protein, UniProt Q61187 1-391)
chain: MAVSESQLKKMMSKYKYRDLTVRQTVNVIAMYKDLKPVLDSYVFNDGSSRELVNLTGTIPVRYRGNIYNIPICLWLLDTYPYNPPICFVKPTSSMTIKTGKHVDANGKIYLPYLHDWKHPRSELLELIQIMIVIFGEEPPVFSRPTVSASYPPYTATGPPNTSYMPGMPSGISAYPSGYPPNPSGYPGCPYPPAGPYPATTSSQYPSQPPVTTVGPSRDGTISEDTIRASLISAVSDKLRWRMKEEMDGAQAELNALKRTEEDLKKGHQKLEEMVTRLDQEVAEVDKNIELLKKKDEELSSALEKMENQSENNDIDEVIIPTAPLYKQILNLYAEENAIEDTIFYLGEALRRGVIDLDVFLKHVRLLSRKQFQLRALMQKARKTAGLSDLY
For the molecule B1, the binding entry in assay [2] is reported as “binds”.

Source of the values: PMC10202954.
